# Results: PubChem BioAssay AID902 (National Center for Advancing Translational Sciences (NCATS), 2007)
# This is a selection; strong and weak results do not stand in their true shares. Inconclusive results are not listed. Calls of active or inactive are those of the source. Calls follow the shape of the dose curve; as a rule, active = well fitted cell-killing curve with a large enough effect; inconclusive = small, poorly fitted or top-dose-only effect; inactive = no such curve, though single readings can be large or run the other way.
# Assay: qHTS Screen for Compounds that Selectively Target Cancer Cells with p53 Mutations: Cytotoxicity of p53ts Cells at the Nonpermissive Temperature; also: nearly all actives have a fitted effect of over 55% in size
# Settings: H1299-p53A138V viability at 39C, ATP luminescence, 24 h; series mostly up to 46.1 µM; activity change, negative = cell killing: at the top concentration
# From the text: NIH Chemical Genomics Center [NCGC] NIH Molecular Libraries Screening Centers Network [MLSCN] MLSCN Grant: 1 X01 MH079844-01 Assay Submitter (PI): Dr. SUN, YI, University of Michigan NCGC Assay Overview: Synthetic Lethal Screen for Compounds to Kill Cancer Cells with p53 Mutation. Tumor suppressor gene p53 serves as a major cellular barrier against tumorigenesis. […] The goal of this screening is to identify small molecule probes that selectively kill cancer cells with mutations in p53. This screening was carried out using two lines of H1299 lung cancer cells. The H1299-p53 A138V line express a temperature sensitive p53 mutant (p53ts) in which the mutant p53 protein (A138V) is in the mutant confirmation when grown at 39C (the nonpermissive temperature) and in the wild type conformation when grown at 32C (the permissive temperature). A H1299-neo line (p53 null) grown at both 39C and 32C were used as counter-screens to filter out false positive associated with temperature shifting. The small molecular compounds that selectively target mutant p53-containing cancer cells were selected as candidate probes for further study. A cytotoxicity assay based on the measurement of ATP contents in cells was used in this screen. Concentration-responses of all the compounds in the library collection were determined in qHTS using the cell lines and temperature conditions as above.
# NCGC Assay Protocol Summary: Both the H1299-p53A138V and H1299-neo cell lines were provided by Dr.Yi Sun, a PI at the University Michigan. The cells were maintained and cultured at 37C. The resuspended frozen cells were used to plate the cells in the 1536-well assay plates at a density of 600 cells per well in 5 ul medium. The assay plates with the cells were incubated at 37C for 16 to 30 hours before the experiments. The library compounds in DMSO solution were added to the cells in assay plates and incubated 24 hours at 39C (for mutant p53 conformation) or 32C (for normal p53 conformation as control). An ATP_lite assay kit (PerkinElmer) was used to determine the cell viability. Tomaxifen (100uM) was used as the positive control for cell killing. Data were normalized to the controls for basal activity (DMSO only) and 100% killing (100uM tamoxifen). AC50 values were determined from concentration-response data modeled with the standard Hill equation. P53 assay protocol: 1. Reagent; 5 uL H1299-p53A138V or H1299-neo cell cells/well 2. Time; overnight; 37C incubation 3. Compounds; 23 nL; 5.9 nM to 46 uM 4. Controls; 23 nL; Tamoxifen 100 uM 5. Time; 24 hr; 39C incubation 6. Reagent; 3 uL; ATP_Lite reagent 7. Time; 20 min; Room Temperature 8. Detection; Luminescence; Viewlux plate reader Keywords: p53, synthetic lethal, cancer, cell viability, cytotoxicity, H1299 cell line, luminescence, MLSMR, MLSCN, NIH Roadmap, qHTS, NCGC
# % is scaled to controls: 0 for no effect and ±100 for the full control effect; potency is read from the fitted curve at half-maximal effect.
SMILES,"activity change, negative = cell killing",Potency
CCOC(=O)c1ccc(NC(=O)CSc2nc3c(c(=O)n2CC)SC(C)C3)cc1 (centres undefined),inactive: 43%,
CCn1c(SCc2ccc(F)cc2Cl)nc(=O)c2c(C(=O)OC)cc(C3CC3)nc21,,active: 12.6 µM
Nc1nc2ccc(OC(F)(F)F)cc2s1,inactive: 0.588% [at 20.6 µM],
Fc1ccc(-n2ncc3c(NCCC4=CCCCC4)ncnc32)cc1,inactive: 13.8%,
